In PubChem BioAssay AID540303 (National Center for Advancing Translational Sciences (NCATS), 2011):
Hit rate of the full screen: of about 330,000 compounds, about 1,000 (0.3%) were called active. Inconclusive results, whose numbers are uncertain, are shown with a selection of clear calls. The call rests on the fitted dose curve; in most records, active means well fitted inhibition curve with a large enough effect; inconclusive means small, poorly fitted or top-dose-only effect; inactive means no such curve, though single readings can be large or run the other way; tested in mouse RAW 264.7 cells. A potency beside an inconclusive call is a rough fit, not a confirmed value.

assay: qHTS for Inhibitors of Cell Surface uPA Generation; conditions: cell surface uPA generation assay; series mostly up to 38.3 µM; further: nearly all actives have a fitted effect of over 55% in size
Procedure, shortened: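 RAW 264.7, 4000 cells/well, o/n 37 C; cpd 1:5 dilution, up to 38.3 uM final; 24 h 37 C/5% CO2 with reagent; ATP-Lite lum. High ATP = LF entry blocked.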
Potency means the concentration at half of the fitted maximal effect.

SMILES | Potency
Cc1ccc(-n2nc3c(=O)n(CC(=O)NC(C)CCc4ccccc4)nc(C)c3c2C)cc1 (stereo not drawn) | inconclusive: 0.891 µM [inhibitor, full curve, poor fit]
Cc1cccc(C(=O)NNC(=O)C(=O)NC(C)(C)C)c1 | inactive
COc1ccc(S(=O)(=O)Oc2cccc(/C=N/N=C3/NC(=O)C(CC(=O)O)S3)c2)cc1 (stereo not drawn) | inactive
Cc1ccc(Nc2cccccc2=O)cc1 | inactive
CC1CN(C(=O)CCNS(=O)(=O)c2ccc(Br)cc2)CC(C)O1 (stereo not drawn) | inactive
COc1ccc(S(=O)(=O)N2Cc3ccccc3CC2C(=O)Nc2ccc(O)cc2)cc1OC (stereo not drawn) | inconclusive: 15.8 µM [inhibitor, single point]
CCCc1cc(C(=O)Nc2ccc(CC)cc2)no1 | inactive
Cc1ccc(NC(=O)c2ncn(CCCN3CCN(Cc4cccc5ccccc45)CC3)n2)cc1C | inconclusive: 28.2 µM [inhibitor, single point]
Cc1ccc(Cl)cc1NC(=O)C1C2CCC(O2)C1C(=O)O (stereo not drawn) | inconclusive: 35.5 µM [inhibitor, partial curve, poor fit]
O=C(Nc1nc(-c2ccccn2)cs1)c1cc(S(=O)(=O)N2CCOCC2)ccc1F | active: 10 µM
COC(=O)C1=C(C)N(Cc2ccccc2)C(=NCC2CC2)N[C@H]1c1ccccc1 | inconclusive: 11.2 µM [inhibitor, single point]
Cc1cc(C)n(CCCNC(=O)c2ccc3c(c2)NC(=O)CS3)n1 | inactive
CCC(CC)C(=O)c1c[nH]c(C(=O)NCc2ccccc2OC)c1 | inconclusive: 8.91 µM [inhibitor, single point]
CN(C)c1ccc(CN(C(=O)COc2ccccc2)C2CCS(=O)(=O)C2)cc1 (stereo not drawn) | inactive
Cc1cc(C)nc(NC(=O)c2cccs2)n1 | inconclusive: 2.82 µM [inhibitor, single point]
Cc1ccc(NC(=O)c2cc(S(=O)(=O)NCCC3=CCCCC3)ccc2F)cc1 | inconclusive: 28.2 µM [inhibitor, single point]
O=C(Nc1cc(-c2ccccc2)nn1-c1c(Cl)cccc1Cl)c1ccc(F)cc1 | inconclusive: 12.6 µM [inhibitor, single point]
O=C(C1=NNCC1c1ccc(Cl)cc1)C1CO1 (stereo not drawn) | inconclusive: 10 µM [inhibitor, single point]
O=C(Nc1cccc(S(=O)(=O)N2CCCCC2)c1)c1ccc(Cl)nc1 | inconclusive: 11.2 µM [inhibitor, single point]
Cc1ccc(-c2nn(-c3ccccc3)c3[nH]c(=O)c(CNCc4ccccc4)cc23)cc1 | inconclusive: 12.6 µM [inhibitor, partial curve, poor fit]
COc1cc(C2Nc3cccc4cccc(c34)N2)cc(OC)c1OC(C)=O | inactive
COc1ccc(CCC(=O)Nc2cc(S(=O)(=O)N3CCOCC3)ccc2OC(C)C)cc1 | inactive
COc1cc(CN2CC(=O)N(c3ccccc3Cl)C2=S)cc(OC)c1OC | inactive
CC(NC(=O)c1cc(COc2c(F)cccc2F)on1)c1cnn(-c2ccccc2)c1 (stereo not drawn) | inactive
O=C(CCN1C(=O)[C@@H]2Cc3ccccc3CN2C1=O)NCc1ccc(Cl)cc1 | inactive

SMILES | Potency
CC(C)N1CCc2c(sc(NC(=O)CCc3ccccc3)c2C(N)=O)C1 | inactive
CCCCCCN1C(=O)CC(NC(=O)OCC2c3ccccc3-c3ccccc32)C/C=C\C1C(C)C (stereo not drawn) | inconclusive: 28.2 µM [inhibitor, single point]
Cc1cc2ncn(/N=C/c3ccc([N+](=O)[O-])o3)c2cc1C | inconclusive: 1.12 µM [inhibitor, full curve]
O=C1C=C(Nc2ccccc2)C(=O)c2ccccc21 | inconclusive: 4.47 µM [inhibitor, partial curve]
CC[C@]12c3[nH]c4cc(-c5ccco5)ccc4c3CCN1C(=O)[C@@H](CC(=O)NCc1cccc(C(F)(F)F)c1)C[C@@H]2C(=O)N1CCN(C(=O)c2ccco2)CC1 | inconclusive: 28.2 µM [inhibitor, single point]
O=C(Nc1ccc(Br)cn1)c1cccc2c1-c1ccccc1C2=O | inconclusive: 7.08 µM [inhibitor, partial curve, poor fit]
CC(C)CC(=O)NNC(=O)c1ccc(Cl)cc1 | inactive
Cc1ccc([N+](=O)[O-])c(OCCN2CCc3ccccc3C2)c1 | inconclusive: 31.6 µM [inhibitor, partial curve, poor fit]
Cc1ccc(-n2c(-c3nn(C)cc3Cl)n[nH]c2=S)cc1 | inactive
COc1cccc(C(=O)Nc2cc(Cl)c(O)c(Cl)c2)c1 | inconclusive: 11.2 µM [inhibitor, partial curve, poor fit]
COc1cc(C(=O)Nc2ccc(S(=O)(=O)Nc3onc(C)c3C)cc2)cc(OC)c1OC | inactive
Clc1ccc(-n2cc(-c3ccc(Br)cc3)[n+]3c2CCCCC3)cc1 | inconclusive: 7.94 µM [inhibitor, single point]
COc1ccc(N2CCCC2=N)c(OC)c1 | inactive
O=C(Nc1ccncc1)c1cccc(S(=O)(=O)N2CCc3ccccc32)c1 | inactive
CCn1c(C(=O)NC2CCC(C)CC2)cc2sccc21 (stereo not drawn) | inactive
O=C(CN1CCc2cc3c(cc2C1)OCCCO3)Nc1ccc(F)cc1 | inactive
COc1ccc(C)cc1S(=O)(=O)N(C)CC(=O)NCc1ccco1 | inactive
CN(C)c1nc(C(=O)NN)nc(N(C)C)n1 | inactive
Cc1ccc(C2=CC(c3ccc(N(C)C)cc3)n3nnnc3N2)cc1 (stereo not drawn) | inconclusive: 12.6 µM [inhibitor, single point]
CCOC(=O)c1[nH]c(C)c(C(=O)OCC(=O)NC(C)c2ccc(F)cc2)c1C (stereo not drawn) | inconclusive: 12.6 µM [inhibitor, partial curve, poor fit]
CC1(C)Cc2c(c(N3CCCCC3)[nH]c(=S)c2C#N)CS1 | inactive
COc1cc2c(cc1OC)CN(C(=O)c1sccc1C)CC2 | inactive
CN(C)C(=O)CCC(=O)N(C)CC1CCCN(CCc2ccc(F)cc2)C1 (stereo not drawn) | inconclusive: 0.0079 µM [inhibitor, full curve, poor fit]
COc1ccc(CCNC(=O)COc2ccc(S(=O)(=O)NC3CCCCC3)cc2Cl)cc1 | inconclusive: 4.47 µM [inhibitor, partial curve, poor fit]
CCOC(=O)C(Cc1c[nH]c2ccc([N+](=O)[O-])cc12)(NC(C)=O)C(=O)OCC | inactive

SMILES | Potency
COc1ccc(/C(C)=N/N2C(=O)c3ccccc3NC2c2ccc(O)c(OC)c2)cc1 (stereo not drawn) | inconclusive: 5.62 µM [inhibitor, partial curve, poor fit]
COc1cccc(CNc2ccc3[nH]c(=O)[nH]c3c2)c1OCc1ccccc1Cl | inconclusive: 10 µM [inhibitor, partial curve, poor fit]
Cc1ccsc1/C=N\NC(=O)Cn1nnc2ccccc21 | inactive
CC(C)c1ccc(Nc2nnns2)cc1 | inactive
CC(=O)n1nc(-c2ccco2)nc1SCc1ccccc1 | inconclusive: 12.6 µM [inhibitor, partial curve, poor fit]
CC(C)n1cnc2c(NCc3ccccc3)cc(Cc3ccc(F)cc3)cc21 | inconclusive: 11.2 µM [inhibitor, single point]
Cc1cc(C)nc(NS(=O)(=O)c2ccccc2)n1 | inactive
Brc1ccc(CSc2nnc(-c3ccccn3)n2Cc2ccco2)cc1 | inconclusive: 8.91 µM [inhibitor, single point]
CN(C)c1ccc(/C=C/c2nc3ccccc3c(=O)n2CCO)cc1 | inconclusive: 2.82 µM [inhibitor, single point]
COCCNc1oc(-c2ccccc2Cl)nc1C#N | inconclusive: 10 µM [inhibitor, partial curve, poor fit]
O=C(Nc1ccc(C2=CN(Cc3ccccc3)CCC2=O)cc1)OCc1ccccc1 | inactive
Cc1ccc(C(=O)NC2CCCc3ccccc32)cc1[N+](=O)[O-] (stereo not drawn) | inconclusive: 3.16 µM [inhibitor, partial curve, poor fit]
O=C1ON=C(c2ccccc2)/C1=C/c1ccc(O)c(O)c1 | inconclusive: 2.82 µM [inhibitor, partial curve, poor fit]
CCC(C)Oc1ccc(C(=O)Nc2ccc(CN3CCOCC3)cc2)cc1 (stereo not drawn) | inconclusive: 11.2 µM [inhibitor, single point]
CC(=O)N1CCc2c(sc(NC(=O)CCS(=O)(=O)c3ccccc3)c2C(N)=O)C1 | inactive
CCn1cc(C(=O)N(C)c2ccc(OC)cc2)c2cc(OC)c(OC)cc2c1=O | inconclusive: 0.891 µM [inhibitor, partial curve, poor fit]
CCCCN1C2=C(C(=O)CC(C)(C)C2)C(c2ccccc2)C2=C1c1ccccc1C2=O (stereo not drawn) | inactive
CC(=O)Nc1c(-c2cc(=O)oc3cc(C)ccc23)oc2ccccc12 | inconclusive: 6.31 µM [inhibitor, partial curve, poor fit]
CCN1CCN(S(=O)(=O)c2ccc(Cl)c(C(=O)N(CCc3ccccc3)Cc3ccccc3)c2)CC1 | inconclusive: 12.6 µM [inhibitor, single point]
Cn1nc(-c2ccccc2)c2cc(C(=O)O)sc21 | inactive
COc1ccc(CNC(=O)Cc2cccs2)cc1 | inconclusive: 31.6 µM [inhibitor, partial curve, poor fit]
NC1=NC[C@H](Cc2ccccc2)N1CCCCC1CCCCC1 | inconclusive: 15.8 µM [inhibitor, single point]
CCCCn1nc(C(=O)Nc2cc(S(=O)(=O)N(C)C)ccc2C)c2ccccc2c1=O | inconclusive: 3.16 µM [inhibitor, partial curve, poor fit]

Four entries from above, set out differently:

| SMILES | Potency |
| --- | --- |
| COc1ccc(/C(C)=N/N2C(=O)c3ccccc3NC2c2ccc(O)c(OC)c2)cc1 (stereo not drawn) | inconclusive: 5.62 µM [inhibitor, partial curve, poor fit] |
| CC(=O)n1nc(-c2ccco2)nc1SCc1ccccc1 | inconclusive: 12.6 µM [inhibitor, partial curve, poor fit] |
| CCC(C)Oc1ccc(C(=O)Nc2ccc(CN3CCOCC3)cc2)cc1 (stereo not drawn) | inconclusive: 11.2 µM [inhibitor, single point] |
| NC1=NC[C@H](Cc2ccccc2)N1CCCCC1CCCCC1 | inconclusive: 15.8 µM [inhibitor, single point] |
